# Data from PMC5947990.
# Chains of the proteins cited; added tags and fusions are not shown.
# UniProt Q9JLV5: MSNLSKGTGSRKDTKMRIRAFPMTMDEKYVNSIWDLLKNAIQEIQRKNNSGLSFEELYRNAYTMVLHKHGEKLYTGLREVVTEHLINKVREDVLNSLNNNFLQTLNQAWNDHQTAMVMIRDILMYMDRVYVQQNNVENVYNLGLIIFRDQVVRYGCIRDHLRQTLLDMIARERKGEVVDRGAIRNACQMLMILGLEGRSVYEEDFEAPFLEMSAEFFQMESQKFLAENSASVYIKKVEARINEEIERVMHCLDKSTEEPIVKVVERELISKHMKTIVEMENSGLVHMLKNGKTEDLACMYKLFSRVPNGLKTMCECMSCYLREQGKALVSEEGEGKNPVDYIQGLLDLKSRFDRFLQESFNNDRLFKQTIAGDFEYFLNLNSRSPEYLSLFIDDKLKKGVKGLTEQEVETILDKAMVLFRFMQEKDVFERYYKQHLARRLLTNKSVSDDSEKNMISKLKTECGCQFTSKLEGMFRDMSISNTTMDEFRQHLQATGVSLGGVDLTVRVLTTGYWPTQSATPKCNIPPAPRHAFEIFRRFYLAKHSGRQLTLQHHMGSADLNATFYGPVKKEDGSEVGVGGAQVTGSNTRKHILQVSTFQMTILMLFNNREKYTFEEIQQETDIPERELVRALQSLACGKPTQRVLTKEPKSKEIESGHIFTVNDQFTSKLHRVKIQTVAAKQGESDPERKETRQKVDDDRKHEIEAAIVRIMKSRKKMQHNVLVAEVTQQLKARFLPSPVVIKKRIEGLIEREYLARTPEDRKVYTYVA
# UniProt Q3TKT4: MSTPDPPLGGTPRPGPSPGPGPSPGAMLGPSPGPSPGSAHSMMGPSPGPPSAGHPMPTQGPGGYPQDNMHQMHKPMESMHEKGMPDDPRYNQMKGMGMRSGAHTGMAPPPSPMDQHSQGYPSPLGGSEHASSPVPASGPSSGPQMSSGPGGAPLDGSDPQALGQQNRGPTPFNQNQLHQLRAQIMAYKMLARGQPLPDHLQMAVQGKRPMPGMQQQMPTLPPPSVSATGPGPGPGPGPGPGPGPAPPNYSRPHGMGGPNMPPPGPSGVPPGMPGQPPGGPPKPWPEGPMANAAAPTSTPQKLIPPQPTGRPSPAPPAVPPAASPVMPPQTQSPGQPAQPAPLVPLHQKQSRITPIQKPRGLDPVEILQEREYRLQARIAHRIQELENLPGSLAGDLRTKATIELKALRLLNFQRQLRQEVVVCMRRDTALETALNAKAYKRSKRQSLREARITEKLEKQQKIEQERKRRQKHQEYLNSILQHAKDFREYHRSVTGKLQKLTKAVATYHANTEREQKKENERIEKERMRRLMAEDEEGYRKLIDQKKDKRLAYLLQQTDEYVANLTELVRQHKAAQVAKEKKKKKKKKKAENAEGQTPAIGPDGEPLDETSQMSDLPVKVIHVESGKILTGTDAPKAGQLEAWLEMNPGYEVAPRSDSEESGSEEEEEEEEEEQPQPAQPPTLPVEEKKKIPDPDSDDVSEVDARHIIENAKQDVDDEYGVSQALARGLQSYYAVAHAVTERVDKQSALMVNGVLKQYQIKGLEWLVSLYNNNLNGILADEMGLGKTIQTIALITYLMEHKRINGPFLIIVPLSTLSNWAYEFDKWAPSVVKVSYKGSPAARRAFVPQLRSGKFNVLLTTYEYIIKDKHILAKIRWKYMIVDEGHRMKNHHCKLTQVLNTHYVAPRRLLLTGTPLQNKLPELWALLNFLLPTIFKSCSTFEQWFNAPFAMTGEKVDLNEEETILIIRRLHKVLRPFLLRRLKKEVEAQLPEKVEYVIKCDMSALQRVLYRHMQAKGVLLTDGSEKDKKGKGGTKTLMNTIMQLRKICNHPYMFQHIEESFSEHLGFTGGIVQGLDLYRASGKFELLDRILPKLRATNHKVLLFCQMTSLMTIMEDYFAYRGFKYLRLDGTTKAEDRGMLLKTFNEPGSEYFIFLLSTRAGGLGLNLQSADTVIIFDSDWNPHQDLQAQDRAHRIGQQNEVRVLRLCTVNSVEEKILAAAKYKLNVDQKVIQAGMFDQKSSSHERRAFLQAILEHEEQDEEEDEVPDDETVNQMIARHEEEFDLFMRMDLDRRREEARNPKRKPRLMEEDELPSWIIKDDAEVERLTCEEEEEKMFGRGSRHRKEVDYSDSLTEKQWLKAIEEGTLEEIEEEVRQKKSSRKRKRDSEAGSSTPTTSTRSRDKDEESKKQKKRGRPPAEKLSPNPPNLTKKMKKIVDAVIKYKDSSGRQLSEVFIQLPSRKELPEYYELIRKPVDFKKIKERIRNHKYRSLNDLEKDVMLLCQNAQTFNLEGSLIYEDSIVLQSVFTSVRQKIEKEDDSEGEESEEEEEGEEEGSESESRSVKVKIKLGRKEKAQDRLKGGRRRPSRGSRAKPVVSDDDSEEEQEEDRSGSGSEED
# UniProt P23198: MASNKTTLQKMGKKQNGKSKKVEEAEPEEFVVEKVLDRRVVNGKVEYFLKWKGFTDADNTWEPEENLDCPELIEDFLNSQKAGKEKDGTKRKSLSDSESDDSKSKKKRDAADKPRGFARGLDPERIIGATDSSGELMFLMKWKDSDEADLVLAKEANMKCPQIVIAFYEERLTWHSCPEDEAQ
# UniProt Q6PDQ2: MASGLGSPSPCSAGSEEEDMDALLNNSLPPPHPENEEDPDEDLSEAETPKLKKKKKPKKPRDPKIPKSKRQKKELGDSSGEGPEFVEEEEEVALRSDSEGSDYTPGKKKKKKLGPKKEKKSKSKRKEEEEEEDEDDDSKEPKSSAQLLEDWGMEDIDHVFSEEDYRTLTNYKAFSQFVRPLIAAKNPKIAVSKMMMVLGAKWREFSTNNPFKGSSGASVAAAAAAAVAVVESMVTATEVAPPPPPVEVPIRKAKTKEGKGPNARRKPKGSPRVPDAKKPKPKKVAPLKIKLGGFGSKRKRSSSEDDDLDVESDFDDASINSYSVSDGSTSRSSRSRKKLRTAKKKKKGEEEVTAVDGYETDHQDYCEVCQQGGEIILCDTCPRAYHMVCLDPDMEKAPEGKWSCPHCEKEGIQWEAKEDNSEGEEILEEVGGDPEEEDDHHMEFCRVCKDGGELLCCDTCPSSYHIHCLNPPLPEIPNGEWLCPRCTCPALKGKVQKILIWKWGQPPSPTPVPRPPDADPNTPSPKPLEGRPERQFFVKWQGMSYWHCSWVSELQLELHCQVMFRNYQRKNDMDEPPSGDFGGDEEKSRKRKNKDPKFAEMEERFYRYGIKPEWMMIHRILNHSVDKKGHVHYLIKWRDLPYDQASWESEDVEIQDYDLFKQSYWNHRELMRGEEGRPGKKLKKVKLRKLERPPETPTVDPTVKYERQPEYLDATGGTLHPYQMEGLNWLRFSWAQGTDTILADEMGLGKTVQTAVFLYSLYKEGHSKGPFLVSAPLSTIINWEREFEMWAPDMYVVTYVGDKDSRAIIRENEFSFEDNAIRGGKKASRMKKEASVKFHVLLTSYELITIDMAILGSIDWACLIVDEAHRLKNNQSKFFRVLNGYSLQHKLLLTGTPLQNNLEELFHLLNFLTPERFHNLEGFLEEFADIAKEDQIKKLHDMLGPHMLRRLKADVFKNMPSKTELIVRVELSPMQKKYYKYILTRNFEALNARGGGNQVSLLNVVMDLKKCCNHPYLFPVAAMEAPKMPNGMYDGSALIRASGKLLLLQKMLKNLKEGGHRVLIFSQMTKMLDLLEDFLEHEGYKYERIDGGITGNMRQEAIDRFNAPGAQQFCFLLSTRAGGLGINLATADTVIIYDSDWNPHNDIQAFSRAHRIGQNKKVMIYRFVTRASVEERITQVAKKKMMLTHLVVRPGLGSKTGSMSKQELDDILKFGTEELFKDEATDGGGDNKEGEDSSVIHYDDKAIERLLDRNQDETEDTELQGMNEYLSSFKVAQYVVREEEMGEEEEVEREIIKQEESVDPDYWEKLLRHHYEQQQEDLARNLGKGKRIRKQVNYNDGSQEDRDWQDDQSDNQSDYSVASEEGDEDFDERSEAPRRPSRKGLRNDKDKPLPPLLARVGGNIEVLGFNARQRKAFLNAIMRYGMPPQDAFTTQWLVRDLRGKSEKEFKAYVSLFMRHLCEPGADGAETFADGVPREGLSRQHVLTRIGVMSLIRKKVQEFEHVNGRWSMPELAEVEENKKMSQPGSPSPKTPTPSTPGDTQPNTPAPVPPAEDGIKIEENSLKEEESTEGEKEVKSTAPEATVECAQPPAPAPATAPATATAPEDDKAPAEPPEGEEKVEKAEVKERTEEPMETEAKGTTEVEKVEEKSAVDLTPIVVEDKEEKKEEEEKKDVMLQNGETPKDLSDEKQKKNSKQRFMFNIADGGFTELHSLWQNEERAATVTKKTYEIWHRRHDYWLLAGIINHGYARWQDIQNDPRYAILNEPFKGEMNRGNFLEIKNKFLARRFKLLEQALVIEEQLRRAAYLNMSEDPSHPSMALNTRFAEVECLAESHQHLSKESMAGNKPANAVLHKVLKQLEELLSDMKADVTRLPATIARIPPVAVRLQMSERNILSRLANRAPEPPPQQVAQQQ
# Results are given in words; binding and its absence hold for the method and conditions named. Binding seen in cells or lysates may run through a third protein. A yes stands for co-enrichment or nearness to the bait. Other partners may have been found. Tags and fused reporters may be left off the sequences shown.
# B1: Olig1 (protein, UniProt Q9JKN5 1-260)
# chain: MYYAISQARVNAAPATMLRPQRPGDVQLGASLYELVGYRQPPISSSSSSSSSTASLLPKPAREKAEAPLAEPRGPAPESGGARADAKEEQQQQQLRRKINSRERKRMQDLNLAMDALREVILPYSAAHCQGAPGRKLSKIATLLLARNYILLLGSSLQELRRALGDGAGPAAPRLLLAGLPLLAAAPGSVLLAPGAVGPPETLRPTKYLSLALDEPPCGQFSLPAGGAGSPGLCSCAVCKFPHLVPAGLGLAAVQAQFSK
# B2: Olig3 (protein, UniProt Q6PFG8 1-273)
# chain: MNSDSSSVSSRASSPDMDEMYLRDHHHRHHHHHQESRLNSVSSTQGDMVQKMPGESLSRAGAKAAGESSKYKIKKQLSEQDLQQLRLKINGRERKRMHDLNLAMDGLREVMPYAHGPSVRKLSKIATLLLARNYILMLTSSLEEMKRLVGEIYGGHHSAFHCGTVGHSAGHPAHAANAVHPVHPILGGALSSGNASSPLSATSLPTIGTIRPPHSLLKAPSTPPALQLGSGFQHWAGLPCPCTICQMPPPPHLSALSTANMARLSAESKDLLK
# Target: T1, Olig2-V5 fusion protein (endogenously V5-tagged Olig2) (mouse (endogenous in GNS cells)) (UniProt Q9EQW6)
# T1 sequence: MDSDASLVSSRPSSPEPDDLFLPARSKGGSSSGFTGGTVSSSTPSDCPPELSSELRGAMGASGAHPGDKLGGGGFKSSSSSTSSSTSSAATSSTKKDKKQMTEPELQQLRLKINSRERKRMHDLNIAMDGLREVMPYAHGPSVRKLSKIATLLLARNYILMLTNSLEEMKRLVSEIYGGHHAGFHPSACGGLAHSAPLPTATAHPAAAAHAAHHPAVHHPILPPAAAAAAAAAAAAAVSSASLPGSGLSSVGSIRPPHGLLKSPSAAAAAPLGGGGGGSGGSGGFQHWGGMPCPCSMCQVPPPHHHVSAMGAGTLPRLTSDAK
# Assay: affinity purification with mass spectrometry; ChIP-SICAP, flow-through of the streptavidin enrichment after anti-V5 immunoprecipitation: interactions with soluble (off-chromatin) Olig2
row,Molecule,binding
1,Cul3 (from UniProt Q9JLV5 1-768),binds
2,Smarca4 (from UniProt Q3TKT4 1-1613),binds
3,Cbx3 (from UniProt P23198 1-183),binds
4,Chd4 (from UniProt Q6PDQ2 1-1915),binds
5,B1,binds
6,B2,binds
